In the supplement of paper PMC11732987, “Enantioselective OTUD7B fragment discovery through chemoproteomics screening and high-throughput optimisation” (Communications Chemistry, 2025):
The list shows a part of the results. The data scatter; read single values as rough.

Amino acid sequences for entries named in this document (tags omitted). A change or cut given only in a name is not applied to a line headed by its entry. Residues count along the entry.
UniProt Q7Z5K2: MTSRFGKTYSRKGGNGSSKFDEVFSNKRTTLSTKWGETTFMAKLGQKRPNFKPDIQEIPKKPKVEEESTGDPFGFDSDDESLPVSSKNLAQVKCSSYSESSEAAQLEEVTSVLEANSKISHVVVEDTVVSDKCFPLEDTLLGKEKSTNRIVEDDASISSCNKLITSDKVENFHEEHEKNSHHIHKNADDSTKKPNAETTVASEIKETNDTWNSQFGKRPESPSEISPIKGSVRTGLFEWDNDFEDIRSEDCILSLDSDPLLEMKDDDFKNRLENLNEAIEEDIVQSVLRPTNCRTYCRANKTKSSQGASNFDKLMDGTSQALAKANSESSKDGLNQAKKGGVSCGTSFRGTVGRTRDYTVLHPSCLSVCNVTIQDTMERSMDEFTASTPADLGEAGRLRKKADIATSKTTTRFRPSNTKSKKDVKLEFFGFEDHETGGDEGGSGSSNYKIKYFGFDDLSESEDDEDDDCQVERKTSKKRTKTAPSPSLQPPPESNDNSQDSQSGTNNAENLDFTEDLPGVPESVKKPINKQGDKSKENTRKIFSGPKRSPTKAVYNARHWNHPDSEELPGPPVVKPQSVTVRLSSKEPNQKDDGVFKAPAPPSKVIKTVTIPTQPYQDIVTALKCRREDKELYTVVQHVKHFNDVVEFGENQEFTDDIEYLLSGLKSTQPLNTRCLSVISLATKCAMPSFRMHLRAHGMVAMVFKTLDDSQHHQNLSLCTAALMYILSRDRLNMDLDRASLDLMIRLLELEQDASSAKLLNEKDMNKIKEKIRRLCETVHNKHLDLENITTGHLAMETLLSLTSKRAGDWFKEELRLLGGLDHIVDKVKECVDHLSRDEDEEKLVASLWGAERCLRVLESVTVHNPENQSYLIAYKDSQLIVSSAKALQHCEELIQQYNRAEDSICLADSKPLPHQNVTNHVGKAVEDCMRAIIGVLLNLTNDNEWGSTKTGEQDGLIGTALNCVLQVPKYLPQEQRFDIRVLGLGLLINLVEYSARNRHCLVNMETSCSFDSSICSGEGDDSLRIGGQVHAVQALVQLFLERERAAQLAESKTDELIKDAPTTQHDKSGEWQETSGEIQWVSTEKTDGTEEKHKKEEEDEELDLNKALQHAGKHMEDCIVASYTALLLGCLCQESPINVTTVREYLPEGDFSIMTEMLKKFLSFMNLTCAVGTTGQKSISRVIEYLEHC
UniProt Q9BRX9: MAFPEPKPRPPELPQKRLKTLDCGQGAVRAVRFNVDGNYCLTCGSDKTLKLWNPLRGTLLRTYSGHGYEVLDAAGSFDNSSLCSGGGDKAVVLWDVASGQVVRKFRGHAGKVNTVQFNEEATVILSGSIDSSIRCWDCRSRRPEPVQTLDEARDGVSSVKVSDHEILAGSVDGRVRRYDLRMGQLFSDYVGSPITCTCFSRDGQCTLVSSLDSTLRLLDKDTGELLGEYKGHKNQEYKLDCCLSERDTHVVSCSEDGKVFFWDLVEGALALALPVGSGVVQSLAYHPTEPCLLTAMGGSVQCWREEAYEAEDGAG
UniProt Q9H4A3, 531-552: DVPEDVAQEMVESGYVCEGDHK
UniProt Q9Y3S1: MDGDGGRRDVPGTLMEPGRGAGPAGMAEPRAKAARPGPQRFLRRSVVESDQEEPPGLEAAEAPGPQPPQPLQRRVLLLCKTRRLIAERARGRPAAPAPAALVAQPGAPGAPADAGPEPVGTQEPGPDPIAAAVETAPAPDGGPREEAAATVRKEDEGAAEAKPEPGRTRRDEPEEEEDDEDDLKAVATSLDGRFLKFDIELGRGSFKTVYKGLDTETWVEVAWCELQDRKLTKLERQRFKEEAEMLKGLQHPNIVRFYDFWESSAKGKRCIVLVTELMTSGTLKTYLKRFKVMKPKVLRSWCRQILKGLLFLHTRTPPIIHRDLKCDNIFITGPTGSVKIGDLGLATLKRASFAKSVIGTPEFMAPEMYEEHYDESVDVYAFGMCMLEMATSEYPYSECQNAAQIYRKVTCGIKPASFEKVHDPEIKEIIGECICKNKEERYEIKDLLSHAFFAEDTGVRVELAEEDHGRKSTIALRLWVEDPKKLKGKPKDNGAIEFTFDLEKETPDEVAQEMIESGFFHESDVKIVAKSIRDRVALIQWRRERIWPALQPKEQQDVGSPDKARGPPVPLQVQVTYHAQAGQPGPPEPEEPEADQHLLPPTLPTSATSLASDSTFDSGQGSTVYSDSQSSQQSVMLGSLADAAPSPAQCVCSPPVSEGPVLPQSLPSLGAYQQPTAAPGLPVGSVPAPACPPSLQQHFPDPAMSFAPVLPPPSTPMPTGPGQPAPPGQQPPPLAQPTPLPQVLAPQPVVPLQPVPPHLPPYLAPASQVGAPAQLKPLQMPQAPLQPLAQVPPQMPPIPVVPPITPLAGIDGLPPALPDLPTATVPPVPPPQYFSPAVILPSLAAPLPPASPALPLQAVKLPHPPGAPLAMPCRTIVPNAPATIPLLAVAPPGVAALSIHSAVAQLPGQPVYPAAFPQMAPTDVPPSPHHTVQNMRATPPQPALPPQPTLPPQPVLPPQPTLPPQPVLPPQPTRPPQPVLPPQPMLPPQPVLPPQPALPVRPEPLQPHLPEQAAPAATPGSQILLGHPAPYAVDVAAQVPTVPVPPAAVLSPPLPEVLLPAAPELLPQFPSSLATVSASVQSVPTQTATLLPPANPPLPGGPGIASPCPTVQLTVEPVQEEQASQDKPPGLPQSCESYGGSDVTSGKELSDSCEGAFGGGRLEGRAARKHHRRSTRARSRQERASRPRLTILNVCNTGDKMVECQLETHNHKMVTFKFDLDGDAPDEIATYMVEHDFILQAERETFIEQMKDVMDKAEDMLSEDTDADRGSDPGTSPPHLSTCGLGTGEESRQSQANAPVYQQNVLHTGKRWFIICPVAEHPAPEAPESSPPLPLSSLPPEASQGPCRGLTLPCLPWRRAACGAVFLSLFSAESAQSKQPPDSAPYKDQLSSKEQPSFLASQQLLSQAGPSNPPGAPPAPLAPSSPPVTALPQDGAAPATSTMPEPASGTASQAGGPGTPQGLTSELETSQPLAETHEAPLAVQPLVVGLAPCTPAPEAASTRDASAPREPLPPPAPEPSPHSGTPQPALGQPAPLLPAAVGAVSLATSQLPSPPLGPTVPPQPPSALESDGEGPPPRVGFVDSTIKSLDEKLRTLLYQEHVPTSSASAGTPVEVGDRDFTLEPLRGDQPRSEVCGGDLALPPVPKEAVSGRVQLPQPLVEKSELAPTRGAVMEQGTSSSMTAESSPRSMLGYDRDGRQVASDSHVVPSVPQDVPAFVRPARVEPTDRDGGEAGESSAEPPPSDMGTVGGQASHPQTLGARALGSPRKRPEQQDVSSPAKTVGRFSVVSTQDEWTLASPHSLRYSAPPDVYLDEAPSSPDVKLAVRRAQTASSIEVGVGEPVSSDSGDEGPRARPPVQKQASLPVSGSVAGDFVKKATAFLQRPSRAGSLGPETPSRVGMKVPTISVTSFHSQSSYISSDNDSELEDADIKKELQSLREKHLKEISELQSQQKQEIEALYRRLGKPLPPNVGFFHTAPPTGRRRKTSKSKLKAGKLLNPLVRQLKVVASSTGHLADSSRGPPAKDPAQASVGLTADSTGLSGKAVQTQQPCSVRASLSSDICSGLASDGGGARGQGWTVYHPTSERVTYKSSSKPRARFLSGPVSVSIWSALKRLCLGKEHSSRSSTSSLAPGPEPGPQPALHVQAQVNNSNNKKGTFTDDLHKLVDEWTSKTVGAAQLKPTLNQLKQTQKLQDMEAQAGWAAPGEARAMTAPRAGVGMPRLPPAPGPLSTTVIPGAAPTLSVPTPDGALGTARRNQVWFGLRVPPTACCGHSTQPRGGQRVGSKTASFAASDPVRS
UniProt Q96JC1, 218-238: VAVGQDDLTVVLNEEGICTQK
UniProt O14980: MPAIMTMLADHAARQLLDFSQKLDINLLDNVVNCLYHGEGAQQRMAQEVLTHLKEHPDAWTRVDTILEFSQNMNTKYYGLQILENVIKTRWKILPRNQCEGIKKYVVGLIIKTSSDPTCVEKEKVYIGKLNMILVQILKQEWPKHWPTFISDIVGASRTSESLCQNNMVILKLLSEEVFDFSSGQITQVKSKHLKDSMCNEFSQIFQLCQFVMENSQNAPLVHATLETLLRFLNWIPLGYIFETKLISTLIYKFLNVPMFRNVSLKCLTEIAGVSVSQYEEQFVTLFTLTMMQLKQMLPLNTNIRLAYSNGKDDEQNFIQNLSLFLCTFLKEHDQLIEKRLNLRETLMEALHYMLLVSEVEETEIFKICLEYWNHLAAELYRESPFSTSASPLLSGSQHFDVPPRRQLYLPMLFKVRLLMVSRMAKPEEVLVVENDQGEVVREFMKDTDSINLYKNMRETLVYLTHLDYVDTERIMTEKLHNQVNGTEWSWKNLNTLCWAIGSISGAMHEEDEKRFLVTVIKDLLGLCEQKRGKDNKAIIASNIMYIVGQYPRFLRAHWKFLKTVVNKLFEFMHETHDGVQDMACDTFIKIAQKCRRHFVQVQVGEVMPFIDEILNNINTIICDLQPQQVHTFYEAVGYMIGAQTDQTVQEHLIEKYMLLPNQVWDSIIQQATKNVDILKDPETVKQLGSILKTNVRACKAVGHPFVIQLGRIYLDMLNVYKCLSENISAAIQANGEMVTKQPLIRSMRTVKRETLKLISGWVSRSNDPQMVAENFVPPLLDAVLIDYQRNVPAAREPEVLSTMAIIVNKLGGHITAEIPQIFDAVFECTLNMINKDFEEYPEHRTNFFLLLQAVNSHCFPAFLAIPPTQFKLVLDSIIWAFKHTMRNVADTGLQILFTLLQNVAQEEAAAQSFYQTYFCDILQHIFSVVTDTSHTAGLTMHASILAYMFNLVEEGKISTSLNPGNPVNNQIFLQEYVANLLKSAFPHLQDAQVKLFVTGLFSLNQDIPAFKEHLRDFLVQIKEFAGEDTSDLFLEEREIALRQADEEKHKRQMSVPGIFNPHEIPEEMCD
UniProt O75132: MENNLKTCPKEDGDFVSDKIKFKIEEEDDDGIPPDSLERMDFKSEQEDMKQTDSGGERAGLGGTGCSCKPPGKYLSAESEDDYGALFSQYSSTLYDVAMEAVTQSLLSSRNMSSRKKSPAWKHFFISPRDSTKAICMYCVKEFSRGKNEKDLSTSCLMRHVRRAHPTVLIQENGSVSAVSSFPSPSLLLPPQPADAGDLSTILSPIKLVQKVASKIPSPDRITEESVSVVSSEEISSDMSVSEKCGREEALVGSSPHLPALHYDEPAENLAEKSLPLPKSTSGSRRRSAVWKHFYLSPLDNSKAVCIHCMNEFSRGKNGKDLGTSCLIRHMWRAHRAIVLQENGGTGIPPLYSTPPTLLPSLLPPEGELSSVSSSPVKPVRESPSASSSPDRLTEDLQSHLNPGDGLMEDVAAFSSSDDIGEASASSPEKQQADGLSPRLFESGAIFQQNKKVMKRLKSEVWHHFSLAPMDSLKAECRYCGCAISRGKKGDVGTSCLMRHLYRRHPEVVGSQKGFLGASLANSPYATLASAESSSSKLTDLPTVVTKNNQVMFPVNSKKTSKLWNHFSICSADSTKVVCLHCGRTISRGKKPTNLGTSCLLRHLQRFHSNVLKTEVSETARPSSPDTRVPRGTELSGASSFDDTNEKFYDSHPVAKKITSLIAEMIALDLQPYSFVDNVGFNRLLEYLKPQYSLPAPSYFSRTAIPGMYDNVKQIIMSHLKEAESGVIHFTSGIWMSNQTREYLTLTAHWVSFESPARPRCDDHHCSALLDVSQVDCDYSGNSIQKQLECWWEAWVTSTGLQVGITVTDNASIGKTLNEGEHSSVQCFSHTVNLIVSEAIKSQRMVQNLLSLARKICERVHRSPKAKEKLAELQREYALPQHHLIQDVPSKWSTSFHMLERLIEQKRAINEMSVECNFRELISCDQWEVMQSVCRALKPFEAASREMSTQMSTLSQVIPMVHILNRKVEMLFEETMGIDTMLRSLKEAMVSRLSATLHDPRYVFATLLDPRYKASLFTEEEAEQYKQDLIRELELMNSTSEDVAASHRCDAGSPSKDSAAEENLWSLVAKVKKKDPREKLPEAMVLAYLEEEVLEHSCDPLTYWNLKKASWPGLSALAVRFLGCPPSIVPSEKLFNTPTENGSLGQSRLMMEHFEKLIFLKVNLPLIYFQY
UniProt P57081: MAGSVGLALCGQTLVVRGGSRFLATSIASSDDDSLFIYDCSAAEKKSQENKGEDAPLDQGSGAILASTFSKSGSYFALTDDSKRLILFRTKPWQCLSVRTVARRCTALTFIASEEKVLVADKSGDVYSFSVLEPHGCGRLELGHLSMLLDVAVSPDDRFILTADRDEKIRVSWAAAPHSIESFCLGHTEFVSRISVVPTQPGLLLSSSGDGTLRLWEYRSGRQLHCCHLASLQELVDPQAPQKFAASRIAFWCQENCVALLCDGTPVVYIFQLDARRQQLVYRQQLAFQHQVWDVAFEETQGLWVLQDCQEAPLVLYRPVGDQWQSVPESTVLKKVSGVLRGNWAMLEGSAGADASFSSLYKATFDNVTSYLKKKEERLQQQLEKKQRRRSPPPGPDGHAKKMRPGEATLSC

Compound: ClCC(=O)N[C@@H]1CCCc2ccccc12
Assay: log2 mean competition ratio of IA-DTB cysteine labelling (DMSO/compound) (log2 ratio); higher = stronger cysteine engagement by compound
Conditions: 50 µM; treatment time: 4 h; cell line lysate: HEK293T
Procedure: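 IA-DTB competitive cysteine chemoproteomics in HEK293T RIPA lysate. Lysates were treated with compound 29 or 30 at 50 or 200 µM for 4 h, then IA-DTB (500 µM, 1 h), trypsin-digested, NeutrAvidin-enriched and analysed by diaPASEF. Competition ratio = intensity DMSO / intensity compound (n=4 treated, n=64 DMSO); binding: mean log2 CR ≥ 1 and p ≤ 0.05 plus QC filters. Target is the cysteine site.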

Target	log2 mean competition ratio
YDJC C294 (UniProt A8MPS7)	0.0495
VTA1 C38 (UniProt Q9NP79)	-0.0171
WAPL C1190 (UniProt Q7Z5K2)	-0.144
WDR59 C888 (UniProt Q6PJI9)	-0.194
XPO5 C1044 (UniProt Q9HAV4)	0.0582
ZC3H3 C338 (UniProt Q8IXZ2)	-0.0782
WDR83 C23 (UniProt Q9BRX9)	0.108
XRCC3 C221 (UniProt O43542)	0.0393
ZADH2 C55 (UniProt Q8N4Q0)	0.553
XPO7 C525	-0.0356
WWC3 C158	-0.15
WAPL C776 (UniProt Q7Z5K2)	-0.0418
WIZ C1279 (UniProt O95785)	0.198
ZBTB1 C160 (UniProt Q9Y2K1)	0.0721
WNK1 C547 (UniProt Q9H4A3)	-0.306
WNK2 C2062 (UniProt Q9Y3S1)	0.142
VPS39 C235 (UniProt Q96JC1)	-0.317
XPO1 C164 (UniProt O14980)	-0.0243
ZBED4 C156 (UniProt O75132)	0.378
WIPI2 C334 (UniProt Q9Y4P8)	0.351
WDR4 C412 (UniProt P57081)	0.351

Same assay, conditions: 200 µM; treatment time: 4 h; cell line lysate: HEK293T

Target	log2 mean competition ratio
YDJC C294 (UniProt A8MPS7)	0.101
VTA1 C38 (UniProt Q9NP79)	0.321
WAPL C1190 (UniProt Q7Z5K2)	0.0735
WDR59 C888 (UniProt Q6PJI9)	-0.142
XPO5 C1044 (UniProt Q9HAV4)	0.237
WDR83 C23 (UniProt Q9BRX9)	-0.0534
XRCC3 C221 (UniProt O43542)	-0.0192
ZADH2 C55 (UniProt Q8N4Q0)	0.025
XPO7 C525	-0.583
WWC3 C158	-0.00101
WAPL C776 (UniProt Q7Z5K2)	-0.0898
WIZ C1279 (UniProt O95785)	-0.433
ZBTB1 C160 (UniProt Q9Y2K1)	0.1
WNK1 C547 (UniProt Q9H4A3)	-0.107
WNK2 C2062 (UniProt Q9Y3S1)	-0.046
VPS39 C235 (UniProt Q96JC1)	0.217
XPO1 C164 (UniProt O14980)	0.0803
ZBED4 C156 (UniProt O75132)	0.0515
WIPI2 C334 (UniProt Q9Y4P8)	-0.488
WDR4 C412 (UniProt P57081)	0.152
